Data as given in PubChem BioAssay AID1259254 (NCATS, 2017).
Aim: 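Finding genes that stop cells copying their DNA twice in one cycle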 (primary screen). Cell system: human HCT116 colorectal cancer cells. Reagent: single siRNA against human genes. Time to read-out: 3 days. Detection: 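Nuclei stained with Hoechst and imaged; cell-cycle phase assigned by DNA content; G2 share scaled per plate, non-targeting siRNA 0%, GMNN siRNA 100%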. Direction: G2 robust z-score: higher = more G2 cells, more excess DNA replication. Active means: 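Active siRNAs have a G2 robust z of 5 or more median absolute deviations over the median, which in these data means about 38% or higher of GMNN control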.
The deposit covers about 59,000 reagents; shown is an unselected part. Over the whole deposit, about 1,550 (2.6%) were called active. 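G2 share is only a proxy for re-replication; each gene was hit by three separate siRNAs, and active genes were retested.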 Entries without a mark were called inactive. The numbers tell different reagents against one gene apart. Further read-outs or replicates are left out here. No sequences are given here. Not stated in the record: the amount of reagent.

With knock-down of GGT7 #1, the record shows G2 robust z-score -0.427.
With knock-down of GGT7 #2, the record shows G2 robust z-score -0.949.
For GGT7 #3 the deposit lists G2 robust z-score -0.172.
RPL29 #1 showed G2 robust z-score 1.14.
Against RPL29 #2 the deposit lists G2 robust z-score -0.479.
For RPL29 #3 the deposit lists G2 robust z-score 4.23.
After knock-down of DYNC2H1 #1, the screen gave G2 robust z-score -0.33.
DYNC2H1 #2 scored G2 robust z-score -0.0452.
For DYNC2H1 #3 the deposit lists G2 robust z-score -0.0592.
Depletion of RPL35 #1 gave: G2 robust z-score 10.2 (active).
With knock-down of RPL35 #2 the results were G2 robust z-score 3.37.
After knock-down of RPL35 #3, the screen gave G2 robust z-score -0.0663.

Hits, of those listed so far:
RPL35 #1 — G2 robust z-score: 10.2 (active)

The list goes on:
With knock-down of C10orf71 #1, the screen gave G2 robust z-score 0.396.
C10orf71 #2 scored G2 robust z-score 0.212.
Against C10orf71 #3 the deposit lists G2 robust z-score 0.152.
TIFA #1 showed G2 robust z-score -0.693.
TIFA #2 showed G2 robust z-score -0.00517.
For TIFA #3, the values are G2 robust z-score 0.351.
IL5 #1 showed G2 robust z-score 2.89.
With knock-down of IL5 #2, the screen gave G2 robust z-score -0.661.
Against IL5 #3, the values are G2 robust z-score 0.503.
Depletion of HCP5 #1 gave: G2 robust z-score -0.891.
With knock-down of HCP5 #2 the results were G2 robust z-score -0.69.
For HCP5 #3, the entry reads G2 robust z-score -0.748.
